Experimental data published in the supplement of paper PMC3334620.
Over roughly 33,000 sequences, “E-score (-0.5 to 0.5)” has its median near -0.0014; the highest 2% begin near 0.25. The list shows a part of the results.

Each sequence was assayed against T1, Cad1 (UniProt P24813) (assay: PBM E-score (8-mer binding enrichment) (E-score (-0.5 to 0.5)); higher = stronger / more preferred TF binding). Settings: protein concentration: 100 nM; construct: GST-full length.
T1 sequence: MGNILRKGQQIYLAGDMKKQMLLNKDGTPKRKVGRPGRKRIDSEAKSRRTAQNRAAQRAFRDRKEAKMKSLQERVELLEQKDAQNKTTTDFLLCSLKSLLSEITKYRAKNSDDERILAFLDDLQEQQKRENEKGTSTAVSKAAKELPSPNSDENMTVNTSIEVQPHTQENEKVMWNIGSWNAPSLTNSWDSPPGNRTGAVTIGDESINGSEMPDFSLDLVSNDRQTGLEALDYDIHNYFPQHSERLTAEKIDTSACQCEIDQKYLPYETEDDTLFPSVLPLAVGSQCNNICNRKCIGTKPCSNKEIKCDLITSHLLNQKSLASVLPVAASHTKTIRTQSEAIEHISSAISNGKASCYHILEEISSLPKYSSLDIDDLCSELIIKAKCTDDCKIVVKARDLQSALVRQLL
Outline: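 Each ungapped eight-base word and its reverse complement, pooled, received an E-score from the Universal PBM Analysis Suite. Underlying scans, normalised with masliner, recorded fluorescent anti-GST bound to GST-tagged yeast transcription factors. These were applied at about 100-200 nM to universal all-10-mer Agilent arrays double-stranded by primer extension.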
In the case of GAATGCAA, the “PBM E-score” value is reported as 0.0943. ACCGGTAC was tested, and the “PBM E-score” value was -0.166. AGACCAAG was tested, and the “PBM E-score” value was -0.0534. In the case of AGATAGGG, the “PBM E-score” value is reported as -0.206. For CGATAAGC, the “PBM E-score” value was 0.055. For TGGAGGAA, the “PBM E-score” value was -0.222. In the case of AAAAGTCC, the “PBM E-score” value is reported as 0.0399. With AAGAAGGT the “PBM E-score” value was -0.0757. AGTCCACT was tested, and the “PBM E-score” value was -0.221. For CTACCGCC, the “PBM E-score” value was -0.153. CTGCCAAA was tested, and the “PBM E-score” value was 0.0517. In the case of CGATTCTA, the “PBM E-score” value is reported as -0.0648. With AAGTCATC the “PBM E-score” value was 0.0371. With AGAAGGCC the “PBM E-score” value was -0.104. For AAGAACGG, the “PBM E-score” value was -0.0894. With TCTAAAGA the “PBM E-score” value was 0.148. With CCTTAGCC the “PBM E-score” value was -0.00184. CGCGAGGC was tested, and the “PBM E-score” value was 0.13. AATAGATC was tested, and the “PBM E-score” value was 0.0487. For AACCTTAT, the “PBM E-score” value was -0.0603. In the case of ACTCCGGA, the “PBM E-score” value is reported as 0.134. For AACGGATA, the “PBM E-score” value was 0.252. CCAGTCAA was tested, and the “PBM E-score” value was -0.0575. With ACGGGCAC the “PBM E-score” value was -0.14. With ATGCGAAT the “PBM E-score” value was -0.0573. In the case of AATAATGA, the “PBM E-score” value is reported as 0.0377. In the case of GAAAATGA, the “PBM E-score” value is reported as 0.0821. TAAAGCCA was tested, and the “PBM E-score” value was 0.14. For TCATGTCA, the “PBM E-score” value was 0.139. With CCAAGTCC the “PBM E-score” value was -0.185. With AAGGCGCC the “PBM E-score” value was 0.0395. In the case of CATTATAC, the “PBM E-score” value is reported as 0.0868. In the case of CTCATTCA, the “PBM E-score” value is reported as 0.0583. For GCGTTGGA, the “PBM E-score” value was -0.0498. In the case of ATGAGCCC, the “PBM E-score” value is reported as -0.194. CCAGCCTC was tested, and the “PBM E-score” value was -0.312. For CTTAAGAA, the “PBM E-score” value was 0.167. In the case of GAGCCTGC, the “PBM E-score” value is reported as -0.0048. In the case of AAACGGAC, the “PBM E-score” value is reported as -0.00593. ACGTCCTG was tested, and the “PBM E-score” value was -0.0935. For CAGAATAG, the “PBM E-score” value was 0.0197. For GCCCGGAA, the “PBM E-score” value was 0.0643. With CTGGGATC the “PBM E-score” value was -0.106. CCACCGCG was tested, and the “PBM E-score” value was 0.156. For TACGTCGA, the “PBM E-score” value was -0.0298. With TACTCCGA the “PBM E-score” value was 0.0119. In the case of CTAACATC, the “PBM E-score” value is reported as -0.0169. In the case of ACAAGGCT, the “PBM E-score” value is reported as -0.161. CCAGTGAG was tested, and the “PBM E-score” value was -0.204. With CCTGTCCA the “PBM E-score” value was -0.176. In the case of AATCGTCC, the “PBM E-score” value is reported as 0.107. For CTTCCTTA, the “PBM E-score” value was -0.102. CCCTGTGC was tested, and the “PBM E-score” value was -0.162. For GATGTTGA, the “PBM E-score” value was -0.0305. With CAAGCTGA the “PBM E-score” value was 0.248. With ATTATGGA the “PBM E-score” value was -0.00855. For AAATGGGT, the “PBM E-score” value was 0.131. In the case of CAAATCTC, the “PBM E-score” value is reported as 0.0661. CTGATCTC was tested, and the “PBM E-score” value was -0.00887. For GCACAACC, the “PBM E-score” value was -0.051. With CAGTTGCC the “PBM E-score” value was -0.0209. For GGGGTTTA, the “PBM E-score” value was -0.128. ACCCTACT was tested, and the “PBM E-score” value was -0.122. For AAGGGGCA, the “PBM E-score” value was -0.173. For TGCAGCAA, the “PBM E-score” value was 0.11. For GAAACGCC, the “PBM E-score” value was 0.0411. For AGTTTCGG, the “PBM E-score” value was 0.06. ATCGCTGC was tested, and the “PBM E-score” value was 0.0431. In the case of ATGCAATG, the “PBM E-score” value is reported as -0.00462. For CCGGGGGA, the “PBM E-score” value was -0.332. AGACAGGA was tested, and the “PBM E-score” value was 0.0481. GAGGCATC was tested, and the “PBM E-score” value was -0.186. ACACGACA was tested, and the “PBM E-score” value was 0.0619. In the case of TCCGTAAA, the “PBM E-score” value is reported as 0.0234. For GTAGAGCA, the “PBM E-score” value was -0.217. With AGCCGGCG the “PBM E-score” value was 0.0742. CTTCTCAC was tested, and the “PBM E-score” value was 0.00034. CGACCCAG was tested, and the “PBM E-score” value was -0.178. For CAGGCCGA, the “PBM E-score” value was 0.00503. CCCTCGGA was tested, and the “PBM E-score” value was -0.0356. For ACAACGAT, the “PBM E-score” value was 0.113. In the case of CCTCGCAC, the “PBM E-score” value is reported as -0.022. With TCTGACCA the “PBM E-score” value was 0.127. In the case of ACTCTGGG, the “PBM E-score” value is reported as -0.162. With AGCGCTCG the “PBM E-score” value was -0.0111. For CCTCATAA, the “PBM E-score” value was -0.0485.
